Patent publication US7179495B1 (Universitaetsklinikum Freiburg, priority 1998, dated 2007)
Where two headings read alike, the source gives them in different places.

Columns and labels:
[1] = tested on: Jurkat (human leukaemic lymphoma); settings: % of the untreated cells
[2] = tested on: A431 (human squamous cell carcinoma); settings: % of the untreated cells
[3] = tested on: HT144 (human melanoma metastasis); settings: % of the untreated cells
[4] = tested on: peripheral blood mononuclear cells (PBMC); settings: for proliferation of PBMC: PHA 1 μg/ml, 24 h, FIG. 7

With CC(C)=CCC[C@]1(C)[C@@H](CC=C(C)C)CC2(CC=C(C)C)C(=O)C(CC=C(C)C)=C(O)C1(C(=O)C(C)C)C2=O (stereo partly drawn) [hyperforin] the Trypan blue exclusion ([1]; hyperforin 2.5 μg/ml) was 100 % of the cells, the Trypan blue exclusion ([1]; hyperforin 5 μg/ml) was 100 % of the cells and the Trypan blue exclusion ([1]; hyperforin 10 μg/ml) was 100 % of the cells. For the same molecule, the Trypan blue exclusion ([1]; hyperforin 20 μg/ml) was 100 % of the cells, the Trypan blue exclusion ([1]; hyperforin 40 μg/ml) was 100 % of the cells and the Trypan blue exclusion ([1]; hyperforin 80 μg/ml) was 100 % of the cells. The Trypan blue exclusion ([2]; hyperforin 2.5 μg/ml) was 100 % of the cells, the Trypan blue exclusion ([2]; hyperforin 5 μg/ml) was 100 % of the cells and the Trypan blue exclusion ([2]; hyperforin 10 μg/ml) was 100 % of the cells. For the same molecule, the Trypan blue exclusion ([2]; hyperforin 20 μg/ml) was 95 % of the cells, the Trypan blue exclusion ([2]; hyperforin 40 μg/ml) was 90 % of the cells and the Trypan blue exclusion ([2]; hyperforin 80 μg/ml) was 90 % of the cells. For the same molecule, the Trypan blue exclusion ([3]; hyperforin 2.5 μg/ml) was 100 % of the cells, the Trypan blue exclusion ([3]; hyperforin 5 μg/ml) was 100 % of the cells and the Trypan blue exclusion ([3]; hyperforin 10 μg/ml) was 100 % of the cells. The Trypan blue exclusion ([3]; hyperforin 20 μg/ml) was 100 % of the cells, the Trypan blue exclusion ([3]; hyperforin 40 μg/ml) was 90 % of the cells and the Trypan blue exclusion ([3]; hyperforin 80 μg/ml) was 80 % of the cells. The “concentration from which a proliferation-inhibiting effect is seen” value ([4]; human lymphocytes) was at least 100 ng/mL, the “proliferation of PBMC” value ([4]; hyperforin 100 μg/ml) was “virtually completely inhibited” and the “proliferation of PBMC” value ([4]; small concentrations of hyperforin) was “proliferation-inhibiting effect”.
